Laboratory results published in PMC7393984.
Results are given in words; binding and its absence hold for the method and conditions named. Some binding calls cover weakened binding; strength is not graded here.

The chains behind the UniProt entries cited, without tags or fusion partners.
UniProt A0R5F3: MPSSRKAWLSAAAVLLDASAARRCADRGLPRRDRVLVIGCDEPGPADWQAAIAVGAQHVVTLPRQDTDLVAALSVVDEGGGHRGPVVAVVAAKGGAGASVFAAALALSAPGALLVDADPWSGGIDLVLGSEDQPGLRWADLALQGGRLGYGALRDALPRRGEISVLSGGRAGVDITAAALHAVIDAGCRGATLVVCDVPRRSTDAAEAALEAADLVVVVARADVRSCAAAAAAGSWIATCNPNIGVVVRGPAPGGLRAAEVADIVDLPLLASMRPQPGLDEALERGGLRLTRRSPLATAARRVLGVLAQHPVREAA

Molecular target: MSMEG_6171, yeast two-hybrid fusion (pGBKT7:MSMEG_6171) (Mycobacterium smegmatis) (UniProt A0R5F3)
Assay: two-hybrid; GAL4-based Matchmaker Gold Yeast Two-Hybrid system; MSMEG_6171 as bait in pGBKT7, prey proteins in pGADT7AD

MSMEG_6171, yeast two-hybrid fusion (pGBKT7:MSMEG_6171) (from UniProt A0R5F3 1-316)
binding: binds
